Test results reported in patent publication US20220267478A1, “PEPTIDE-LOADED CARRIER SYSTEMS AND USES THEREOF” (Academia Sinica, priority 2019, published 2022).
Not every detail of the peptide structures is certain; ends, links or a residue may be inferred. Ends that are not written are not given here.

What was measured:
CD8 T cells [1] = assay: Trp2-specific CD8 T cell response in splenocytes of vaccinated mice (intracellular IFN-γ staining, flow cytometry); format: in vivo, C57BL/6 mice; details: peptide in nanoparticles with cdGMP, s.c. day 0 and 21; splenocytes day 28 challenged with Trp2 peptide
Method: The immunogenicity of modified Trp2 peptides was tested by encapsulating them in the aqueous core of hollow thin-shell nanoparticles together with a fixed amount of stimulator of interferon genes (STING) agonist cyclic di-GMP (cdGMP) and injecting them into mice.
The modified Trp2 peptides were as follows: (i) D4-Trp2-D5, (ii) Trp2-D5, (iii) D5-Trp2, (iv) D2G3-Trp2-G3D2, (v) Trp2-G3D3, and (vi) D3G3-Trp2. As Trp2 itself cannot be incorporated into the aqueous core due to its hydrophobicity, a longer Trp2 peptide, namely, Trp2168-195 was encapsulated as a positive control.
Nanoparticles each containing an equivalent dose of one of the Trp2 peptides and cdGMP were prepared as described in Example 1 above and administered to C57BL/6 mice on day 0 and day 21 by subcutaneous injection at the base of the tail. On day 28, splenocytes of the vaccinated mice were isolated and examined for Trp2-specific CD8 T cell immune responses. Briefly, splenocytes from each mouse were challenged with Trp2 peptide and expression of IFN-γ in CD8 T cells was measured by intracellular cytokine staining and flow cytometry.

CD8 T cells [2] = assay: OVA257-264-specific CD8 T cell response in splenocytes of vaccinated mice; format: in vivo; details: peptides in nanoparticles with cdGMP, FIG. 15

Sequence | CD8 T cells producing IFN-γ (CD8 T cells [1]) [%] | OVA peptide-specific responses in splenocytes (immunogenicity) versus OVA (CD8 T cells [2])
DDDGGGSVYDFFVWL [D3G3-Trp2, DDDGGGSVYDFFVWL] | ≤ 4 | –
DDDGGGSIINFEKL [D3G3-OVA] | – | increased
